Reference: publication PMC9332509
No constants are given. Whether binding was seen depends on the method and setting. Binding seen in cells or lysates may run through a third protein. Some results given as binding are weak or reduced against the parent protein; the word gives no strength.

Amino acid sequences for entries named in this document (tags omitted).
UniProt O95817: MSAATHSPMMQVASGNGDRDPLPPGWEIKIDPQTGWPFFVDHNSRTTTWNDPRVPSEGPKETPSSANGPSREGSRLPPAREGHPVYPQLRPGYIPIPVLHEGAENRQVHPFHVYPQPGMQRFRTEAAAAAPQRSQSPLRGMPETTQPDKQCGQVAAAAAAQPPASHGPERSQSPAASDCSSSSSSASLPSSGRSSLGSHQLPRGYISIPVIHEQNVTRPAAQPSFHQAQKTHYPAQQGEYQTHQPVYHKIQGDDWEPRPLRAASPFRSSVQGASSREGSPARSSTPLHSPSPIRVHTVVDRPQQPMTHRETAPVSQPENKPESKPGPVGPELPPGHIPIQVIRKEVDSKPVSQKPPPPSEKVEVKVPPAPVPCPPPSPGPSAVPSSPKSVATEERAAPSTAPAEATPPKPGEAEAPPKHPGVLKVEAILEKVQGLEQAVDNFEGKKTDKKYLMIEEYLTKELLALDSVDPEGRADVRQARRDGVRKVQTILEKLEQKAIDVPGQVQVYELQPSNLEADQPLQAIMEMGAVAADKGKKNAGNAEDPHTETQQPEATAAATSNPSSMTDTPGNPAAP

Biological target: BAG3 (B cell lymphoma 2-associated athanogene) (human (endogenous in HUVECs)) (UniProt O95817)
Assay: co-IP; HUVEC extracts immunoprecipitated with immobilised anti-BAG3 antibody (10 ug, Co-IP kit), blots probed with anti-HSP70 or anti-HSPB8; endogenous proteins

B1: HSPB8 (protein, UniProt Q9UJY1 1-196)
chain: MADGQMPFSCHYPSRLRRDPFRDSPLSSRLLDDGFGMDPFPDDLTASWPDWALPRLSSAWPGTLRSGMVPRGPTATARFGVPAEGRTPPPFPGEPWKVCVNVHSFKPEELMVKTKDGYVEVSGKHEEKQQEGGIVSKNFTKKIQLPAEVDPVTVFASLSPEGLLIIEAPQVPPYSTFGESSFNNELPQDSQEVTCT
  binding: binds
